According to PubChem BioAssay AID445 (National Center for Advancing Translational Sciences (NCATS), 2006):
Some of the results follow. Further columns of the screen follow, without active or inactive calls. The list favours compounds with an active or inconclusive main result. Potencies come from curve fits of mixed quality, noted in brackets.

Assay: IkB Signaling
Details: ABC-DLBCL IkBa-CBG/CBR dual luciferase ratio (green luciferase fused to IkBa over red control in OCI-Ly3 lymphoma cells), 4 h
In short: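 In this assay, an IκBα–CBG68 fusion accumulates when IKK-driven degradation is blocked; native CBR normalizes for cell number. OCI-Ly3 cells were treated 4 h with compound and doxycycline, then green and red light read after Chroma-Glo addition.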

[1] = measured here: control luc red channel unless noted
[2] = measured here: IkB-luc green channel
[3] = measured here: control luc red channel

Q: Which AC50 [1] does the source give for `CSc1ccc(CCNC(=O)CCc2c(C)nc3c4cccnc4nn3c2C)cc1` here?
A: 20 µM [falling, partial curve]

Q: With `COc1cccc(CNCc2c(C(=O)O)c(C)n(Cc3ccc(F)cc3Cl)c2C)c1OC` as the molecule, how does the AC50 [1] read?
A: 25.1 µM [falling, single point]

Q: For `O=C(Nc1ccc(F)c(F)c1)c1ccc(F)c(S(=O)(=O)N2CCC3(CC2)OCCO3)c1`, which AC50 [1] is on record?
A: 20 µM [falling, partial curve]

Q: For `CCSc1nc2sc3c(c2c(=O)n1-c1ccc(C)cc1)CCCC3`, which AC50 [1] is on record?
A: 3.98 µM [falling, full curve]

Q: Which AC50 [1] does the source give for `O=C(CC1N=C2c3ccccc3N=C(SCc3cccc(F)c3)N2C1=O)NC1CCCCC1` (stereo not given) here?
A: 1.26 µM [falling, single point]

Q: Which AC50 [1] does the source give for `Cc1ccccc1OCCn1nc(C(=O)O)c2ccccc2c1=O` here?
A: 39.8 µM [falling, single point]

Q: With `O=C(Cn1c(=O)n(Cc2ccco2)c(=O)c2sc3ccccc3c21)Nc1ccccc1C(F)(F)F` as the molecule, how does the AC50 [1] read?
A: 25.1 µM [rising, partial curve] [measured here: IkB-luc green channel]

Q: With `CCCc1[nH]nc2c1C(c1cn[nH]c1-c1ccc(F)cc1)C(C#N)=C(N)O2` (stereo not given) as the molecule, how does the AC50 [1] read?
A: 12.6 µM [falling, partial curve]

Q: Which AC50 [1] does the source give for `Cc1ccc(-n2nc(C)c3c(C)c(CCC(=O)NCc4ccccc4Cl)c(C)nc32)cc1` here?
A: 7.94 µM [falling, partial curve]

Q: With `CC(=O)NCCNC(=O)c1ccc2c(=O)n(CCc3ccccc3)c(=O)[nH]c2c1` as the molecule, how does the AC50 [1] read?
A: 0.501 µM [falling, full curve, poor fit]

Q: Which AC50 [1] does the source give for `Fc1ccc(Cc2cn3cc(-c4ccc(F)cc4)nc3s2)cc1` here?
A: 39.8 µM [falling, single point]

Q: With `Cc1[nH]n(C(N)=S)c(=O)c1C(c1ccccc1)C(C#N)C#N` (stereo not given) as the molecule, how does the AC50 [1] read?
A: 31.6 µM [rising, partial curve] [measured here: IkB-luc green channel]

Q: What does the source list for `COc1ccc(NC(=O)c2ccc3oc(=O)c(S(=O)(=O)c4ccc(F)cc4)cc3c2)c(OC)c1`?
A: AC50 [2]: 15.8 µM [rising, partial curve]; AC50 [3]: 25.1 µM [falling, partial curve]

Q: For `COc1ccc(CC(=O)Nc2ccc(-c3nc4ccccc4s3)c(C)c2)cc1`, which AC50 [1] is on record?
A: 3.98 µM [rising, partial curve]

Q: With `Cc1cnc(NC(=O)c2ccc(-c3nc4ccccc4s3)o2)s1` as the molecule, how does the AC50 [1] read?
A: 25.1 µM [falling, partial curve]

Q: Which AC50 [1] does the source give for `CCc1nnc(NC(=O)c2ccc(OC)cc2OC)s1` here?
A: 12.6 µM [falling, partial curve]

Q: Which AC50 [1] does the source give for `COC(=O)c1ccc(CSc2nc3ccncc3n2Cc2ccc(F)cc2)cc1` here?
A: 3.98 µM [falling, full curve]

Q: With `COc1ccc(-c2nnc(SCc3ccccc3)n2N)cc1` as the molecule, how does the AC50 [1] read?
A: 15.8 µM [falling, partial curve]

Q: For `COCC(C)Nc1ncnc2c1cnn2-c1cccc(Cl)c1` (stereo not given), which AC50 [1] is on record?
A: 15.8 µM [falling, partial curve]

Q: Which AC50 [1] does the source give for `Cc1ccc(Cl)cc1N1CCN(C(=O)c2cc(S(=O)(=O)N3CCCCC3)cn2C)CC1` here?
A: 15.8 µM [falling, partial curve]

Q: Which AC50 [1] does the source give for `O=c1cc(-c2ccccc2)[nH]n1-c1nc2ccccc2s1` here?
A: 15.8 µM [falling, partial curve]

Q: With `COc1ccc2cc3c(N)nn(C(=O)c4ccc(F)cc4Cl)c3nc2c1` as the molecule, how does the AC50 [1] read?
A: 10 µM [falling, partial curve]

Q: With `COc1ccc(C(=O)NCC(c2ccc3c(c2)OCO3)N2CCN(C)CC2)cc1OC` (stereo not given) as the molecule, how does the AC50 [1] read?
A: 31.6 µM [rising, single point] [measured here: IkB-luc green channel]

Q: For `Cc1cc(NC(=O)CN2CCC(O)CC2)nc2c1c(=O)oc1ccccc12`, which AC50 [1] is on record?
A: 20 µM [falling, partial curve]

Q: Which AC50 [1] does the source give for `COCCCNc1ncnc2nc[nH]c12` here?
A: 2 µM [falling, full curve]

Q: With `CCN1CCN(c2ncnc3c2cnn3-c2ccc(F)cc2)CC1` as the molecule, how does the AC50 [1] read?
A: 39.8 µM [falling, single point]

Q: Which AC50 [1] does the source give for `O=C(Nn1c(-c2ccccc2)nc2ccccc2c1=O)c1ccco1` here?
A: 12.6 µM [falling, partial curve]

Q: Which AC50 [1] does the source give for `Cc1cccc(NC(=O)CSc2nc(C)c(Cc3ccccc3)c(=O)[nH]2)c1C` here?
A: 20 µM [falling, partial curve]

Q: With `Cc1ccc(CNC(=O)c2cc(Sc3ccc(F)cc3F)nc3ccccc23)cc1` as the molecule, how does the AC50 [1] read?
A: 2.51 µM [falling, full curve, poor fit]

Q: With `CCC(C(=O)N(C)Cc1ccccc1)n1nc(C)c2sc3ccccc3c2c1=O` (stereo not given) as the molecule, how does the AC50 [1] read?
A: 25.1 µM [falling, partial curve]

Q: For `CN(C)c1ccc(-c2noc(-c3ccccc3O)n2)cc1`, which AC50 [1] is on record?
A: 0.00794 µM [falling, full curve]

Q: For `O=C(CSc1nncc2ccccc12)N1CCOCC1`, which AC50 [1] is on record?
A: 25.1 µM [falling, single point]

Q: Which AC50 [1] does the source give for `CCOC(=O)N1CCN(S(=O)(=O)N2CCCC(C(=O)NCc3ccccc3OC)C2)CC1` (stereo not given) here?
A: 12.6 µM [falling, partial curve, poor fit]

Q: With `Cc1ccc2ccc3cc(C(=O)Nc4ccc(C)c(F)c4)nc3c2[nH]1` as the molecule, how does the AC50 [1] read?
A: 0.0251 µM [falling, full curve, poor fit]

Q: For `CCOC(=O)c1ccc(CN(Cc2ccc(F)cc2)S(=O)(=O)c2cc(C(=O)Nc3ccccc3CC)ccc2F)cc1`, which AC50 [1] is on record?
A: 3.98 µM [falling, full curve, poor fit]

Q: Which AC50 [1] does the source give for `CSc1ccc(/C=C/c2nc3ccccc3n2S(=O)(=O)c2ccc(F)c(C)c2)cc1` here?
A: 3.16 µM [falling, partial curve]

Q: Which AC50 [1] does the source give for `CCOc1ccc(NC(=O)CC2C(=O)N(c3cccc(C)c3)C(=O)N2CCC2=CCCCC2)cc1` (stereo not given) here?
A: 20 µM [falling, single point]

Q: With `CCc1ccc(CN(Cc2ccco2)C(=O)c2ccc(C)cc2)cc1` as the molecule, how does the AC50 [1] read?
A: 25.1 µM [falling, single point]

Q: With `COc1ccccc1-c1cc(C(=O)NCc2ccc(Cl)cc2)no1` as the molecule, how does the AC50 [1] read?
A: 7.94 µM [falling, partial curve]

Q: What does the source list for `CCNc1nc(NC(C)C)nc(N(C#N)Cc2ccccc2)n1`?
A: AC50 [2]: 15.8 µM [falling, partial curve]; AC50 [3]: 39.8 µM [falling, single point]

Q: Which AC50 [1] does the source give for `CC(=O)Nc1ccccc1-c1nc2ccccc2n(C(C)C(=O)Nc2cccc(C)c2C)c1=O` (stereo not given) here?
A: 0.126 µM [rising, full curve]

Q: Which AC50 [1] does the source give for `CC(=O)N(Cc1cccnc1)c1nc2cc(C)cc(C)c2s1` here?
A: 3.16 µM [rising, partial curve, poor fit]

Q: Which AC50 [1] does the source give for `O=S(=O)(c1ccc(Cl)cc1)c1nnn2c1nc(NCc1ccccc1)c1sccc12` here?
A: 3.16 µM [falling, single point]

Q: Which AC50 [1] does the source give for `CCc1ccc(C(=O)c2cn(CC(=O)Nc3cccc(C)c3C)c3nc(C)ccc3c2=O)cc1` here?
A: 3.98 µM [rising, single point] [measured here: IkB-luc green channel]

Q: Which AC50 [2] does the source give for `CCOC(=O)N1CCc2c(sc(NC(=O)c3ccc(Cl)s3)c2C(N)=O)C1` here?
A: 31.6 µM [falling, single point]

Q: What about the AC50 [3] of the same molecule?
A: 2 µM [falling, full curve]

Q: With `COc1ccccc1C(=O)N(Cc1ccco1)Cc1ccccc1F` as the molecule, how does the AC50 [1] read?
A: 31.6 µM [falling, single point]

Q: Which AC50 [1] does the source give for `COc1ccc(N2CCN(C(=O)CCc3c(C)nc4cc(-c5cccc(F)c5)nn4c3C)CC2)cc1` here?
A: 1 µM [falling, full curve]

Q: Which AC50 [1] does the source give for `Cc1ccccc1C(=O)N1CCCCC1CCN1CCCCC1` (stereo not given) here?
A: 0.0631 µM [falling, single point]

Q: With `Cc1csc(NC(=O)c2cccc(S(=O)(=O)N3CCCCC3)c2)n1` as the molecule, how does the AC50 [1] read?
A: 20 µM [falling, partial curve]

Q: Which AC50 [1] does the source give for `Cc1ccc(/C=C/c2nc3ccccc3n2S(=O)(=O)c2ccc(Br)cc2)cc1` here?
A: 0.316 µM [falling, partial curve]

Q: With `CC(=O)N1CCc2c(sc3c2c(=O)n(-c2ccccc2)c(=O)n3Cc2cccc(C(F)(F)F)c2)C1` as the molecule, how does the AC50 [1] read?
A: 31.6 µM [falling, partial curve]

Q: For `Cc1sc2ncnc(Sc3nnnn3-c3ccccc3)c2c1C`, which AC50 [1] is on record?
A: 12.6 µM [falling, partial curve]

Q: Which AC50 [1] does the source give for `COc1cccc(N=C2SC(C(=O)Nc3cccc(Cl)c3)CC(=O)N2C)c1` (stereo not given) here?
A: 25.1 µM [falling, partial curve]

Q: Which AC50 [1] does the source give for `Cc1cccc(-n2c(=O)[nH]c3c(C(N)=O)nc(-c4ccccc4Cl)nc32)c1` here?
A: 7.94 µM [falling, partial curve]

Q: For `Cc1cccc(N2CCN(C(=O)CCCn3ncn4c(cc5occc54)c3=O)CC2)c1C`, which AC50 [1] is on record?
A: 25.1 µM [falling, partial curve]

Q: With `CCOc1cc(CNCCSc2nnnn2C)cc(Cl)c1OCc1ccc(Cl)cc1` as the molecule, how does the AC50 [1] read?
A: 15.8 µM [falling, partial curve]

Q: For `O=C(NCC(c1cccnc1)N1CCc2ccccc2C1)C(=O)Nc1cccc(Cl)c1` (stereo not given), which AC50 [1] is on record?
A: 0.0794 µM [rising, full curve]

Q: With `COc1ccc(-c2cc(C(=O)NCCc3ccccc3)c3c(-c4ccccc4)[nH]nc3n2)cc1` as the molecule, how does the AC50 [1] read?
A: 3.98 µM [falling, full curve]

Q: Which AC50 [1] does the source give for `Cc1ccc(Nc2nc3nonc3[nH]c2=O)cc1C` here?
A: 12.6 µM [falling, partial curve]

Q: For `COc1ccc(Br)cc1C1CC(=O)N2CN(Cc3ccccc3)CSC2=C1C#N` (stereo not given), which AC50 [1] is on record?
A: 10 µM [falling, partial curve]

Q: For `O=C(Cn1ncc2c(=O)oc3ccccc3c21)NCC1COc2ccccc2O1` (stereo not given), which AC50 [1] is on record?
A: 3.16 µM [falling, partial curve]

Q: For `COc1ccc(-c2nnc3sc(-c4ccco4)nn23)cc1OC`, which AC50 [1] is on record?
A: 39.8 µM [rising, single point] [measured here: IkB-luc green channel]
